No constants are given. Whether binding was seen depends on the method and setting. In cells and extracts the contact can be indirect. Some results given as binding are weak or reduced against the parent protein; the word gives no strength.
How the values were obtained:
Experiment in all cases: proximity ligation; fixed, permeabilised cultured mouse cortical (and cerebellar) neurons from wild-type or L1 mutant mice; mouse L1 antibody C-2 with goat or rabbit antibodies against the partner, or rabbit L1 antibody ab12399 with mouse antibodies; cells treated with vehicle, 1 µM aprotinin, 50 µg/mL L1 antibody 557 or siRNAs
[1] = target: estrogen receptor α (ERα), endogenous mouse (mouse (endogenous in cultured cortical neurons)) (UniProt P19785)
[2] = target: histone H1.4 (HistH1e), endogenous mouse (mouse (endogenous in cultured cortical neurons)) (UniProt P43274)
[3] = target: androgen receptor (AR), endogenous mouse (mouse (endogenous in cultured cortical neurons)) (UniProt P19091)
[4] = target: T1, splicing factor proline/glutamine-rich (SFPQ), endogenous mouse (mouse (endogenous in cultured cortical neurons)) (UniProt Q8VIJ6)
T1 sequence: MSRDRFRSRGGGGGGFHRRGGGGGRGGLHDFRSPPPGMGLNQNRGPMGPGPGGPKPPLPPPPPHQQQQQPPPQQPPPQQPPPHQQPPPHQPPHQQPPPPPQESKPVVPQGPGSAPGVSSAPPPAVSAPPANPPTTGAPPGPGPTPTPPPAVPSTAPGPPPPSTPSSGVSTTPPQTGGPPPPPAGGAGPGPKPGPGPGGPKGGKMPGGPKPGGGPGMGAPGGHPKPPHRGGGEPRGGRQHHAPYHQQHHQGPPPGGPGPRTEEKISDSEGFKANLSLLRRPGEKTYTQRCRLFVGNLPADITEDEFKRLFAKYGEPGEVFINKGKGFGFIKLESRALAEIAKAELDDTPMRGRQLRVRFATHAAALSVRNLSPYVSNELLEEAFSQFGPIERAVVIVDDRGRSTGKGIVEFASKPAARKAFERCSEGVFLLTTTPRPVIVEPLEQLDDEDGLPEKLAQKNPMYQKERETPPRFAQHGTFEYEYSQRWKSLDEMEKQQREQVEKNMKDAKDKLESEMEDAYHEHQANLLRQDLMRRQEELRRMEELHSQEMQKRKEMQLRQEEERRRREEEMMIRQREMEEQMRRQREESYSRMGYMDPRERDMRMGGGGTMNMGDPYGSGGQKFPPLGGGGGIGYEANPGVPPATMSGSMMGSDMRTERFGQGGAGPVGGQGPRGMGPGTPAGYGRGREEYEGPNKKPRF

By UniProt entry, the sequences of proteins in these tests, tags left out. Residues count along the entry.
UniProt P19785: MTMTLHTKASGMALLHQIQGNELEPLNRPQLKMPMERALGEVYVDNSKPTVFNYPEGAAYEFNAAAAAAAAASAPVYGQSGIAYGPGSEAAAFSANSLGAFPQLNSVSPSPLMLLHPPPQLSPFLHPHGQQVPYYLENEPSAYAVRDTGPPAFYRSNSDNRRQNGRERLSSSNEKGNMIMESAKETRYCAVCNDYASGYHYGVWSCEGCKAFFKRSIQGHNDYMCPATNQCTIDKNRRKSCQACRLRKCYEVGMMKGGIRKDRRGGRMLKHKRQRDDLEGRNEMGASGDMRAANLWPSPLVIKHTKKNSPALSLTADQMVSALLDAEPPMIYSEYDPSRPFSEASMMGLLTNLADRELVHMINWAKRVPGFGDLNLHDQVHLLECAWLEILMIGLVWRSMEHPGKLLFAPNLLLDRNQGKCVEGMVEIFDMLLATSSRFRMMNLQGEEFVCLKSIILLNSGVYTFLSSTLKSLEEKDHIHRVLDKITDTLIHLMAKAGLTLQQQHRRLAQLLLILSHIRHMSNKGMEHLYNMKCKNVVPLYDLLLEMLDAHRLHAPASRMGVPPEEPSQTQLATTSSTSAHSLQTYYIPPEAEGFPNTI
UniProt P43274: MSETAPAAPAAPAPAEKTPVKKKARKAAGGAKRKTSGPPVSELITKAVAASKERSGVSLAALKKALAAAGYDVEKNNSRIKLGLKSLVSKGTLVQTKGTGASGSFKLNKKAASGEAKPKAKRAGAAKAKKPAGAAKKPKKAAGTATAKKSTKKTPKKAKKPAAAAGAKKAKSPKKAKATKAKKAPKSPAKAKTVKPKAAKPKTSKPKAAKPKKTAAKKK
UniProt P19091: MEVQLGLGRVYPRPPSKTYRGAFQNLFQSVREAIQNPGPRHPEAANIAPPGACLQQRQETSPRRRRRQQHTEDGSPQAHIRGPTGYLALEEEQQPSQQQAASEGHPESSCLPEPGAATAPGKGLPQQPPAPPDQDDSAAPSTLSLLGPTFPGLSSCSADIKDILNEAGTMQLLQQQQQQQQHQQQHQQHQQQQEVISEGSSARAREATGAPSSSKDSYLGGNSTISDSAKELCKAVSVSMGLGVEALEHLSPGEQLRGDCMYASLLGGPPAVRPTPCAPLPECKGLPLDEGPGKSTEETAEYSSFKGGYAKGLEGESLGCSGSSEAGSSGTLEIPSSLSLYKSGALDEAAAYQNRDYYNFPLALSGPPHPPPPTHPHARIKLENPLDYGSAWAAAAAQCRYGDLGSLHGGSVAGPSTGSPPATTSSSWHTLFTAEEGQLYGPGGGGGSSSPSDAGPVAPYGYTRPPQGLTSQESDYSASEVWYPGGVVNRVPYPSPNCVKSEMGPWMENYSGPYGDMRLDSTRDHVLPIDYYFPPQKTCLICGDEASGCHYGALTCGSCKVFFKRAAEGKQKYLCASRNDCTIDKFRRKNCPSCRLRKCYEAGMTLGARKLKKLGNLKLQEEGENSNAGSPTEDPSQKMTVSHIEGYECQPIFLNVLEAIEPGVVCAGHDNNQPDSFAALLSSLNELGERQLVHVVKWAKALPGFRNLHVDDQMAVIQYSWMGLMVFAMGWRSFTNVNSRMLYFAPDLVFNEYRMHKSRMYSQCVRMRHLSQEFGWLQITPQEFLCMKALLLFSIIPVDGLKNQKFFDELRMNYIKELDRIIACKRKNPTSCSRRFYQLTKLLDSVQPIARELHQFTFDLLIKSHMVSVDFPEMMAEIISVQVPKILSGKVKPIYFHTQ
UniProt P11627, residues 20-1260: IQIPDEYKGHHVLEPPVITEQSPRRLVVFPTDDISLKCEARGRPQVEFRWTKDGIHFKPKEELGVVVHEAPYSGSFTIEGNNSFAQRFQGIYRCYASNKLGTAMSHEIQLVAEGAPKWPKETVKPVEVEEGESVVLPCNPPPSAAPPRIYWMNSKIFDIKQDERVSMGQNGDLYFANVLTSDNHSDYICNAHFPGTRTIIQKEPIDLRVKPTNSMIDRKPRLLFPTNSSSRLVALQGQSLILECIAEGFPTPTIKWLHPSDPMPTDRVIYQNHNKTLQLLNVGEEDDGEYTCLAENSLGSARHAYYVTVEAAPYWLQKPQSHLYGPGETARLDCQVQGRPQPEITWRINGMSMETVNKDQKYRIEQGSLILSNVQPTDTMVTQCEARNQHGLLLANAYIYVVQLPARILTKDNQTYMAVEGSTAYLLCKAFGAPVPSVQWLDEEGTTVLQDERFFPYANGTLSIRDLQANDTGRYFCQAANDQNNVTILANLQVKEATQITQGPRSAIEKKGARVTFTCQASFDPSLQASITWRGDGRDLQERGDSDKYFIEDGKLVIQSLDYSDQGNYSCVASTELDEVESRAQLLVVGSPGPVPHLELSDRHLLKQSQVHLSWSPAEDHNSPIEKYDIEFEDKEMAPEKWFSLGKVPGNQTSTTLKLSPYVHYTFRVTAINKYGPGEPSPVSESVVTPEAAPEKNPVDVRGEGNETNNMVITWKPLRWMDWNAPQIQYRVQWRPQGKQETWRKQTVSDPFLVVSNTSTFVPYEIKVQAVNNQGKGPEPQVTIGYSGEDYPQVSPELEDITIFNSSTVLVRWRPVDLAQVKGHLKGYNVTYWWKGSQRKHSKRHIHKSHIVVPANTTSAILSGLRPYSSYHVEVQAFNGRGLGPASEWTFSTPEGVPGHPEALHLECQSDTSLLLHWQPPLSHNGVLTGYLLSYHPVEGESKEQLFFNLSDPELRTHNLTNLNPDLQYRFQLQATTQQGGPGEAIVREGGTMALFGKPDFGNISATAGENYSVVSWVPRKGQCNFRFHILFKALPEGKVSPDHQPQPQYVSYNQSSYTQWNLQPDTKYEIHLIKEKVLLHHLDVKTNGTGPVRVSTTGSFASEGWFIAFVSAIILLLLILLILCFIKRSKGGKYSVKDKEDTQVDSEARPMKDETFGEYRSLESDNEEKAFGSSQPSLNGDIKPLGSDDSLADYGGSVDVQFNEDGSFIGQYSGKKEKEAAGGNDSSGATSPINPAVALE

Measured: binding

cell adhesion molecule L1, endogenous in wild-type mouse neurons (from UniProt P11627 20-1260)
binds: all assays above

— publication PMC9916828
